Measured values reported in article PMC6256979.
Construct, isoform or probe ends are uncertain for at least one entry. For part of these data: Negatives hold for the conditions tested. For part of these data: A weaker result is weaker than the reference pair of the same experiment.

Chains of the proteins cited; added tags and fusions are not shown. A line that says so, or that is headed by a name, gives the form on record, which may keep a tag or linker. Residues count along the entry.
UniProt P02769, 25-607: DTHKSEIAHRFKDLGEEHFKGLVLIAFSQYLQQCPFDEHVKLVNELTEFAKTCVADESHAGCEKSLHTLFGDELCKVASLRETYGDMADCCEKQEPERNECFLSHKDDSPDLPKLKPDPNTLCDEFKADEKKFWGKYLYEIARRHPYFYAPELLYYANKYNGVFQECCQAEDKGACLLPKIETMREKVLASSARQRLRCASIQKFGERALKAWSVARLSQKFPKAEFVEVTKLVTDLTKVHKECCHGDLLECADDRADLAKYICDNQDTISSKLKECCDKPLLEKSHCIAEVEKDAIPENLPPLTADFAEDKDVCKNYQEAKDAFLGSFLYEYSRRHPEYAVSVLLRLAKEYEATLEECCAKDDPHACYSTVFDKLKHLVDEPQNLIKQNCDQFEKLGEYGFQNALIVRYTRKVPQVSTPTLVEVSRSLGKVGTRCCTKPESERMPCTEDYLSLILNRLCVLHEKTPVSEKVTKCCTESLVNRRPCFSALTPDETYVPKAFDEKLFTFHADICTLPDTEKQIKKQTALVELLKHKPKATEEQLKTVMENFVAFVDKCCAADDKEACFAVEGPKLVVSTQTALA
VEGF165 (human), one chain, as listed by the source: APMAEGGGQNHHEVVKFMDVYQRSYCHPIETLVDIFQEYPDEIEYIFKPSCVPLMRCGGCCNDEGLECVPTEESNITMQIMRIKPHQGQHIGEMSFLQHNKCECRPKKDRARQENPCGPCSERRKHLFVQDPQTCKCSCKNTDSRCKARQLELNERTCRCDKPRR
VEGF121 (human), one chain, as listed by the source: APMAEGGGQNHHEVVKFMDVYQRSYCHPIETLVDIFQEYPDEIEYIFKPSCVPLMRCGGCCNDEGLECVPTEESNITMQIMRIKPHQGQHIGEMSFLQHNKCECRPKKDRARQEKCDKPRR

Columns and labels:
[1] = tested on: thyroglobulin; test: aptamer blotting; details: blotting: TBSTE (TBSE + 0.05% Tween-20), BSA block, 100 nM FITC-aptamer; commercial protein; label: FITC (blotting); folded or branched DNA
[2] = target: bovine serum albumin (BSA) (bovine) (UniProt P02769); test: aptamer blotting; details: blotting: TBSTE (TBSE + 0.05% Tween-20), BSA block, 100 nM FITC-aptamer; commercial protein; label: FITC (blotting); folded or branched DNA
[3] = tested on: PQQGDH (pyrroloquinoline quinone glucose dehydrogenase); test: aptamer blotting; details: blotting: TBSTE (TBSE + 0.05% Tween-20), BSA block, 100 nM FITC-aptamer; label: FITC (blotting); folded or branched DNA
[4] = tested on: VEGF165 (human); test: aptamer blotting; details: blotting: TBSTE (TBSE + 0.05% Tween-20), BSA block, 100 nM FITC-aptamer; recombinant protein; label: FITC (blotting); folded or branched DNA
[5] = tested on: VEGF121 (human); test: aptamer blotting; details: blotting: TBSTE (TBSE + 0.05% Tween-20), BSA block, 100 nM FITC-aptamer, recombinant protein, label: FITC (blotting), folded or branched DNA
[6] = tested on: VEGF165 (human); test: SPR; details: SPR: TBSE (10 mM Tris/HCl, 100 mM NaCl, 0.05 mM EDTA, pH 7.0), 24 °C, VEGF on CM5 chip, 1:1 model, recombinant protein, label: FITC (blotting), folded or branched DNA
[7] = tested on: VEGF121 (human); test: SPR; details: SPR: TBSE (10 mM Tris/HCl, 100 mM NaCl, 0.05 mM EDTA, pH 7.0), 24 °C, VEGF on CM5 chip, 1:1 model; recombinant protein; label: FITC (blotting); folded or branched DNA

Sequence | binding result [1] | binding result [2] | binding result [3] | binding result [4] | binding result ([5]; weaker than VEGF165 in this assay) | Kd [6] | binding result ([6]; TBSE without KCl) | binding result ([6]; folded with 50 mM KCl) | Kd [7] | binding result [5]
ATACCAGTCTATTCAATTGCACTCTGTGGGGGTGGACGGGCCGGGTAGATAGTATGTGCAATCA [Vap7] | no binding | no binding | no binding | binds | binds more weakly | 20 nM | binds more weakly | binds | 1 nM | –
TGTGGGGGTGGACGGGCCGGGTAGA [V7t1] | – | – | – | binds | – | – | – | – | 1.1 nM | binds
